Experimental data taken from patent US20030129236A1, “Multiple pulse extended release formulations of clindamycin” (priority 2001, published 2003).

Level of colonic absorption (release in ascending colon): considerably higher than expected
SMILES: CCC[C@@H]1C[C@@H](C(=O)N[C@@H]([C@H]2O[C@H](SC)[C@H](O)[C@@H](O)[C@H]2O)[C@H](C)Cl)N(C)C1 [clindamycin]
Adverse side effects of release (human, in vivo): No adverse side effects
